The values below come from PubChem BioAssay AID228 (DTP/NCI, 2004).

This assay has as its system BDF1 mice, Friend leukemia sc, tumor weight T/C. Kind of assay: NCI In Vivo Anticancer Drug Screen. Data for tumor model Friend Virus Leukemia (Solid) (subcutaneous) in B6D2F1 (BDF1) mice. Particulars: T/C endpoint: mean tumor weight, schedule: Q01DX011 (ip), vehicle: carboxymethylcellulose (CMC), evaluation day not shown, higher T/C = larger tumour. On the procedure:
The antitumor activity of compounds was measured in mice bearing transplantable tumors. Survival or tumor size were measured and the results are expressed as the measurement made in the treated group (T) divided by the measurement made in the vehicle treated control group (C). The tumor model used in this assay is Friend Virus Leukemia (Solid) (subcutaneous) in B6D2F1 (BDF1) mice

The list is a part of this screen's results and no random one: it gathers some chemical classes. Not every dose and run of a compound is shown. T/C gives the treated animals as a percentage of the vehicle group. Some entries show no survivor count and are marked so; the dose need not have been tolerated. Schedules are NCI's codes, taken here to give the interval after Q, in days (D) or hours (H), and the number of doses after X. Some entries hold several experiments; the results are listed from low to high.

In the case of `CN(CCCl)CCCl`, the T/C runs as follows: (dose: 0.04 mg/kg/injection) 84 % of control [survivor count not shown]; (dose: 0.07 mg/kg/injection) 117 % of control [survivor count not shown]; (dose: 0.12 mg/kg/injection) 103 % of control [survivor count not shown]; (dose: 0.15 mg/kg/injection) 103 % of control [survivor count not shown]; (dose: 0.25 mg/kg/injection) 35 [survivor count not shown], 89 [survivor count not shown], 121 [survivor count not shown], 161 % of control [survivor count not shown]; (dose: 0.3 mg/kg/injection) 85 % of control [survivor count not shown]. In addition, the T/C (dose: 0.5 mg/kg/injection) is 29 [survivor count not shown], 42 [survivor count not shown], 97 [survivor count not shown], 109 % of control [survivor count not shown].
